No constants are given. Whether binding was seen depends on the method and setting. In cells and extracts the contact can be indirect. These calls come from enrichment with a bait or labelling near it, and not all partners need be listed. Tags and fused reporters may be left off the sequences shown.
T1: MycHDA19 (Myc-tagged histone deacetylase 19) (Arabidopsis thaliana) (UniProt O22446)
T1 sequence: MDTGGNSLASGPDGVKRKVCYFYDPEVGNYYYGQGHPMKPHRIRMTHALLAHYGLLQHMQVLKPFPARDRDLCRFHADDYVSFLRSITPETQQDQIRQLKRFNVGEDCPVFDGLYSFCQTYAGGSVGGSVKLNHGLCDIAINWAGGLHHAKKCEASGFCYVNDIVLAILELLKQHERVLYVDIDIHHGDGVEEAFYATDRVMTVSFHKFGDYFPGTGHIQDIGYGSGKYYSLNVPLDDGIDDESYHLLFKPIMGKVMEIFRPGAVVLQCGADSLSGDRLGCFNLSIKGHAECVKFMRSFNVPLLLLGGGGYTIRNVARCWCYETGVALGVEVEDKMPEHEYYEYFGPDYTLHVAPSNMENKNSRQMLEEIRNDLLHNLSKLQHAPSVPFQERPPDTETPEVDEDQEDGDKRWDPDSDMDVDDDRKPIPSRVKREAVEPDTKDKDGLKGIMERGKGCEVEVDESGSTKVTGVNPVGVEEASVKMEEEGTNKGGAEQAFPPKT

B1: AT5G36790 (protein, UniProt P0DKC4 55-362)
chain: TSSNITPRAMATQQLENADQLIDSVETFIFDCDGVIWKGDKLIEGVPETLDMLRAKGKRLVFVTNNSTKSRKQYGKKFETLGLNVNEEEIFASSFAAAAYLQSINFPKDKKVYVIGEEGILKELELAGFQYLGGPDDGKRQIELKPGFLMEHDHDVGAVVVGFDRYFNYYKIQYGTLCIRENPGCLFIATNRDAVTHLTDAQEWAGGGSMVGALVGSTQREPLVVGKPSTFMMDYLADKFGIQKSQICMVGDRLDTDILFGQNGGCKTLLVLSGVTSISMLESPENKIQPDFYTSKISDFLSPKAATV
B2: CCT7 (protein, UniProt Q9SF16 1-557)
chain: MASMMQPQIILLKEGTDTSQGKAQLVSNINACTAVGDVVRTTLGPRGMDKLIHDDKGSVTISNDGATIMKLLDIVHPAAKILVDIAKSQDSEVGDGTTTVVLLAAEFLKEAKPFIEDGVHAQNLIRSYRTASTLAIAKVKELAVSIEGKSVEEKKGLLAKCAATTLSSKLIGGEKEFFATMVVDAVMAIGNDDRLNLIGIKKVPGGNMRDSFLVDGVAFKKTFSYAGFEQQPKKFLNPKILLLNIELELKSEKENAEIRLSDPSQYQSIVDAEWNIIYDKLDKCVESGAKVVLSRLAIGDLATQYFADRDIFCAGRVAEEDLNRVAAAAGGTVQTSVNNIIDEVLGTCEIFEEKQVGGERFNIFSGCPSGRTATIVLRGGADQFIEEAERSLHDAIMIVRRAVKNSTVVPGGGAIDMEISKYLRQHSRTIAGKSQLFINSYAKALEVIPRQLCDNAGFDATDVLNKLRQKHAMQSGEGASYGVDINTGGIADSFANFVWEPAVVKINAINAATEAACLILSVDETVKNPKSESAQGDAAGAMGRGRGGGRGRGMRRR
B3: FdC1 (protein, UniProt O23344 57-154)
chain: VEHDGKTTELEVEPDETILSKALDSGLDVPYDCNLGVCMTCPAKLVTGTVDQSGGMLSDDVVERGYTLLCASYPTSDCHIKMIPEEELLSLQLATAND
B4: ICL (protein, UniProt P28297 1-576)
chain: MAASFSVPSMIMEEEGRFEAEVAEVQTWWSSERFKLTRRPYTARDVVALRGHLKQGYASNEMAKKLWRTLKSHQANGTASRTFGALDPVQVTMMAKHLDTIYVSGWQCSSTHTSTNEPGPDLADYPYDTVPNKVEHLFFAQQYHDRKQREARMSMSREERTKTPFVDYLKPIIADGDTGFGGTTATVKLCKLFVERGAAGVHIEDQSSVTKKCGHMAGKVLVAVSEHINRLVAARLQFDVMGTETVLVARTDAVAATLIQSNIDARDHQFILGATNPSLRGKSLSSLLAEGMTVGKNGPALQSIEDQWLGSAGLMTFSEAVVQAIKRMNLNENEKNQRLSEWLTHARYENCLSNEQGRVLAAKLGVTDLFWDWDLPRTREGFYRFQGSVAAAVVRGWAFAQIADIIWMETASPDLNECTQFAEGIKSKTPEVMLAYNLSPSFNWDASGMTDQQMVEFIPRIARLGYCWQFITLAGFHADALVVDTFAKDYARRGMLAYVERIQREERTHGVDTLAHQKWSGANYYDRYLKTVQGGISSTAAMGKGVTEEQFKESWTRPGADGMGEGTSLVVAKSRM
B5: CRU2 (protein, UniProt P15456 25-455)
chain: QWPNECQLDQLNALEPSQIIKSEGGRIEVWDHHAPQLRCSGFAFERFVIEPQGLFLPTFLNAGKLTFVVHGRGLMGRVIPGCAETFMESPVFGEGQGQGQSQGFRDMHQKVEHLRCGDTIATPSGVAQWFYNNGNEPLILVAAADLASNQNQLDRNLRPFLIAGNNPQGQEWLQGRKQQKQNNIFNGFAPEILAQAFKINVETAQQLQNQQDNRGNIVKVNGPFGVIRPPLRRGEGGQQPHEIANGLEETLCTMRCTENLDDPSDADVYKPSLGYISTLNSYNLPILRLLRLSALRGSIRKNAMVLPQWNVNANAALYVTNGKAHIQMVNDNGERVFDQEISSGQLLVVPQGFSVMKHAIGEQFEWIEFKTNENAQVNTLAGRTSVMRGLPLEVITNGYQISPEEAKRVKFSTIETTLTHSSPMSYGRPRA
B6: LACS6 (protein, UniProt Q8LPS1 39-701)
chain: AGEFCLDNGYSVVLPEKLNTGSWNVYRSAKSPFKLVSRFPDHPDIATLHDNFEHAVHDFRDYKYLGTRVRVDGTVGDYKWMTYGEAGTARTALGSGLVHHGIPMGSSVGIYFINRPEWLIVDHACSSYSYVSVPLYDTLGPDAVKFIVNHATVQAIFCVAETLNSLLSCLSEMPSVRLVVVVGGLIESLPSLPSSSGVKVVSYSVLLNQGRSNPQRFFPPKPDDVATICYTSGTTGTPKGVVLTHANLIANVAGSSFSVKFFSSDVYISYLPLAHIYERANQILTVYFGVAVGFYQGDNMKLLDDLAALRPTVFSSVPRLYNRIYAGIINAVKTSGGLKERLFNAAYNAKKQALLNGKSASPIWDRLVFNKIKDRLGGRVRFMTSGASPLSPEVMEFLKVCFGGRVTEGYGMTETSCVISGMDEGDNLTGHVGSPNPACEVKLVDVPEMNYTSADQPHPRGEICVRGPIIFTGYYKDEIQTKEVIDEDGWLHTGDIGLWLPGGRLKIIDRKKNIFKLAQGEYIAPEKIENVYAKCKFVGQCFIYGDSFNSSLVAVVSVDPDVLKSWAASEGIKGGDLRELCNNPRVKAAVLSDMDTVGREAQLRGFEFAKAVTLVLEPFTLENGLLTPTFKIKRPQAKEYFAEAITNMYKELGASDPSANRGL
B7: SIN3-like (SNL) protein 1 (protein, UniProt Q9SRH9 1-1372)
chain: MKRIRDDVYASGSQFRRPLGSSRGQLCGQSPVHGSGDTEEEEEGGSRRVSQKLTTNDALSYLREVKEMFQDQREKYDRFLEVMKDFKAQRTDTGGVIARVKELFKGHNNLIYGFNTFLPKGYEITLIEEDDALPKKTVEFEQAINFVNKIKMRFKHDEHVYKSFLEILNMYRKENKEIKEVYNEVSILFQGHLDLLEQFTRFLPASLPSHSAAQHSRSQAQQYSDRGSDPPLLHQMQVEKERRRERAVALRGDYSVERYDLNDDKTMVKIQREQRKRLDKENRARRGRDLDDREAGQDNLHHFPEKRKSSRRAEALEAYSGSASHSEKDNLKSMYKQAFVFCEKVKDRLCSQDDYQTFLKCLNIFSNGIIQRKDLQNLVSDLLGKFPDLMDEFNQFFERCESITDGFQRLAGVMSKKLFSSEEQLSRPMKVEEKESEHKPELEAVKETEQCKKEYMGKSIQELDLSDCECCTPSYRLLPADYPIPIASQRSELGAEVLNDHWVSVTSGSEDYSFKHMRRNQYEESLFRCEDDRFELDMLLESVSSAARSAESLLNIITEKKISFSGSFRIEDHFTALNLRCIERLYGDHGLDVIDILNKNPATALPVILTRLKQKQGEWKKCRDDFDKVWANVYAKNHYKSLDHRSFYFKQQDSKNLSAKSLLAEIKELKEKSQNDDDVLLSISAGYRQPINPNLEYEYLNRAIHEDMFKVVQFSCEELCSTKEQLSKVLRLWENFLEAVLGVPPRAKGTDLVEDVVINPKTLDVNHSTSPNGEAAVSSGGDTARLASRKLKSAANGDENSSSGTFKHGIGLLNKDSTGKENLEDVEIANRDGVACSAVKPQKEQETGNEAEKRFGKPIPMDISERAAISSISIPSGAENNHCVVGKEVLPGAHEIQAKPSDTLTDIHHDVDSIETVHSTQGGDVGNSIVLANGLRSDSSKGTRNSDDPEGPSRNEKEEGELSPNGDFEDNFGVYKDHGVKSTSKPENSAEAEVEADAEVENEDDADDVDSENASEASGTESGGDVCSQDEDREEENGEHDEIDGKAESEGEAEGMDPHLLEGESELLPQSERVLLSVRPLSKHVAAVLCDERTKDLQVFYGNDDFYVLFRLHQILYERILYAKRNCSGGELKSKNLKDTNAGDPYARFMRVLYGLLDGSAENTKFEDECRAIIGNQSYVLFTLDKLIYRLVKQLQAIVADEMDNKLLQLYEYEKSRKPGRVIDSVYYENVRVLVHEENIYRLECSSLPSRLSIQLMDNIIEKPEAYAVSMDPTFASYMQTELLSVSSGKKEEGHDIVLQRNLTGLYDLCKAMEGVEVVNGLECKMSCSSYKIAYVLDTEDYFHRKKKKKKTEQLWQRNKVRVERFHRFLSA
B8: SIN3-like (SNL) protein 2 (protein, UniProt Q9LFQ3 1-1367)
chain: MKRIRDDIYATGSQFKRPLGSSRGESYEQSPITGGGSIGEGGINTQKLTTDDALTYLKEVKEMFQDQRDKYDMFLEVMKDFKAQKTDTSGVISRVKELFKGHNNLIFGFNTFLPKGFEITLDDVEAPSKKTVEFEEAISFVNKIKTRFQHNELVYKSFLEILNMYRKDNKDITEVYNEVSTLFEDHSDLLEEFTRFLPDSLAPHTEAQLLRSQAQRYDDRGSGPPLVRRMFMEKDRRRERTVASRGDRDHSVDRSDLNDDKSMVKMHRDQRKRVDKDNRERRSRDLEDGEAEQDNLQHFSEKRKSSRRMEGFEAYSGPASHSEKNNLKSMYNQAFLFCEKVKERLCSQDDYQAFLKCLNMFSNGIIQRKDLQNLVSDVLGKFPDLMDEFNQFFERCESIDGFQHLAGVMSKKSLGSEENLSRSVKGEEKDREHKRDVEAAKEKERSKDKYMGKSIQELDLSDCERCTPSYRLLPPDYPIPSVRHRQKSGAAVLNDHWVSVTSGSEDYSFKHMRRNQYEESLFRCEDDRFELDMLLESVGSAAKSAEELLNIIIDKKISFEGSFRIEDHFTALNLRCIERLYGDHGLDVTDLIRKNPAAALPVILTRLKQKQDEWTKCREGFNVVWADVYAKNHYKSLDHRSFYFKQQDSKNLSAKALVSEVKDLKEKSQKEDDVVLSISAGYRQPIIPHLEYDYLDRAIHEDLFKLVQFSCEEICSTKEQTGKVLKLWANFLELMLDVAPRAKGSDSVEDVVETQHQRAFTSGEANESSDAISLVSRQLKFATNGDVHASSGVSKHGETGLLNRDSSGKENLKDGDLANKDVATCAEKPQKDQEIGNGAAKRSGDVDERVATSSSSFPSGVENNNGKVGSRDSSGSRGILSKPSEAIDKVDSIQHTQGVDIGRIIVLGNGLQSDTSKANSNYDESGGPSKIEKEEGELSPVGDSEDNFVVYEDRELKATAKTEHSVEAEGENDEDADDEDGDDASEAGEDASGTESIGDECSQDDNGVEEEGEHDEIDGKAESEGEAEGMESHLIEDKGLFPSSERVLLSVKPLSKHIAAAALVDEKKKDSRVFYGNDDFYVLFRLHRVSAIDSYDLLSHILYERILSAKTYCSGSEMKLRNTKDTCSPDPYARFMNALFSLLNGSAENSKFEDECRAIIGNQSYVLFTLEKLIYKLVKQLQAVVADDMDNKLLQLYEYENSRRPGRVFDSVYYENARILLHEENIYRLECSSSPSRLSIQLMDNIIEKPDAYAVSMEPTFTSYLQNEFLSNSSGKKELQDIVLQRNMRGYNGLDDLAVACKAMEGVQVINGLECKMSCSSYKISYVLDTEDFFHRKKKQKKSNNLSLAKLSQNRIARFHKFLSASR

These binders were tested against T1, MycHDA19 (Myc-tagged histone deacetylase 19) (Arabidopsis thaliana) (assay: affinity purification with mass spectrometry).

binding, binds:
B1
B2
B3
B4
B5
B6
B7
B8
